Laboratory results as given in paper PMC7303255.

Key:
Test in all cases: two-hybrid; pairwise: GAL4 BD fusions in pAS2-1 (target) and GAL4 AD fusions in pACT2 (binder) in AH109; growth on SD/-Leu-Trp-His with various concentrations of 3-AT (20 or 50 mM), 30 °C, 6-9 days; colony-lift filter assay for lacZ
[1] = target: CCT motif of CIL (CIL 337-394aa) (Arabidopsis thaliana)
[2] = target: CIL 1-156aa fragment (Arabidopsis thaliana)
[3] = target: CIL 290-394aa fragment (Arabidopsis thaliana)

| Binder | binding [1] | binding [2] | binding [3] |
| --- | --- | --- | --- |
| full-length ABSCISIC ACID … 3 (ABI3) in pACT2 (protein, UniProt Q01593 1-720) MKSLHVAANAGDLAEDCGILGGDADDTVLMDGIDEVGREIWLDDHGGDNNHVHGHQDDDLIVHHDPSIFYGDLPTLPDFPCMSSSSSSSTSPAPVNAIVSSASSSSAASSSTSSAASWAILRSDGEDPTPNQNQYASGNCDDSSGALQSTASMEIPLDSSQGFGCGEGGGDCIDMMETFGYMDLLDSNEFFDTSAIFSQDDDTQNPNLMDQTLERQEDQVVVPMMENNSGGDMQMMNSSLEQDDDLAAVFLEWLKNNKETVSAEDLRKVKIKKATIESAARRLGGGKEAMKQLLKLILEWVQTNHLQRRRTTTTTTNLSYQQSFQQDPFQNPNPNNNNLIPPSDQTCFSPSTWVPPPPQQQAFVSDPGFGYMPAPNYPPQPEFLPLLESPPSWPPPPQSGPMPHQQFPMPPTSQYNQFGDPTGFNGYNMNPYQYPYVPAGQMRDQRLLRLCSSATKEARKKRMARQRRFLSHHHRHNNNNNNNNNNQQNQTQIGETCAAVAPQLNPVATTATGGTWMYWPNVPAVPPQLPPVMETQLPTMDRAGSASAMPRQQVVPDRRQGWKPEKNLRFLLQKVLKQSDVGNLGRIVLPKKEAETHLPELEARDGISLAMEDIGTSRVWNMRYRFWPNNKSRMYLLENTGDFVKTNGLQEGDFIVIYSDVKCGKYLIRGVKVRQPSGQKPEAPPSSAATKRQNKSQRNINNNSPSANVVVASPTSQTVK | no binding | binds |  |
| full-length ARABIDOPSIS RESPONSE REGULATOR 3 (ARR3) in pACT2 (protein, UniProt Q9ZWS9 1-231) MAKDGGVSCLRRSEMIGIGIGELESPPLDSDQVHVLAVDDSLVDRIVIERLLRITSCKVTAVDSGWRALEFLGLDDDKAAVEFDRLKVDLIITDYCMPGMTGYELLKKIKESTSFKEVPVVIMSSENVMTRIDRCLEEGAEDFLLKPVKLADVKRLRSYLTRDVKVAAEGNKRKLTTPPPPPPLSATSSMESSDSTVESPLSMVDDEDSLTMSPESATSLVDSPMRSPGLA | no binding | binds |  |
| full-length NUCLEAR FACTOR Y, Subunit B1 (NF-YB1) in pACT2 (protein, UniProt Q9SLG0 1-141) MADTPSSPAGDGGESGGSVREQDRYLPIANISRIMKKALPPNGKIGKDAKDTVQECVSEFISFITSEASDKCQKEKRKTVNGDDLLWAMATLGFEDYLEPLKIYLARYRELEGDNKGSGKSGDGSNRDAGGGVSGEEMPSW | no binding | binds |  |
| full-length NUCLEAR FACTOR Y, Subunit C1 (NF-YC1) in pACT2 (protein, UniProt Q9SMP0 1-234) MDTNNQQPPPSAAGIPPPPPGTTISAAGGGASYHHLLQQQQQQLQLFWTYQRQEIEQVNDFKNHQLPLARIKKIMKADEDVRMISAEAPILFAKACELFILELTIRSWLHAEENKRRTLQKNDIAAAITRTDIFDFLVDIVPRDEIKDEAAVLGGGMVVAPTASGVPYYYPPMGQPAGPGGMMIGRPAMDPNGVYVQPPSQAWQSVWQTSTGTGDDVSYGSGGSSGQGNLDGQG | no binding | binds |  |
| full-length NUCLEAR FACTOR Y, Subunit C9 (NF-YC9) in pACT2 (protein, UniProt Q8L4B2 1-231) MDQQDHGQSGAMNYGTNPYQTNPMSTTAATVAGGAAQPGQLAFHQIHQQQQQQQLAQQLQAFWENQFKEIEKTTDFKNHSLPLARIKKIMKADEDVRMISAEAPVVFARACEMFILELTLRSWNHTEENKRRTLQKNDIAAAVTRTDIFDFLVDIVPREDLRDEVLGSIPRGTVPEAAAAGYPYGYLPAGTAPIGNPGMVMGNPGGAYPPNPYMGQPMWQQQAPDQPDQEN | no binding | binds |  |
| full-length CIA2 (CIA2FL) in pAS2-1 or pACT2 (protein, UniProt Q9LU68 1-435) MSACLSSGGGGAAAYSFELEKVKSPPPSSSTTTTRATSPSSTISESSNSPLAISTRKPRTQRKRPNQTYNEAATLLSTAYPNIFSSNLSSKQKTHSSSNSHFYGPLLSDNDDASDLLLPYESIEEPDFLFHPTIQTKTEFFSDQKEVNSGGDCYGGEIEKFDFSDEFDAESILDEDIEEGIDSIMGTVVESNSNSGIYESRVPGMINRGGRSSSNRIGKLEQMMMINSWNRSSNGFNFPLGLGLRSALRENDDTKLWKIHTVDFEQISPRIQTVKTETAISTVDEEKSDGKKVVISGEKSNKKKKKKKMTVTTTLITESKSLEDTEETSLKRTGPLLKLDYDGVLEAWSDKTSPFPDEIQGSEAVDVNARLAQIDLFGDSGMREASVLRYKEKRRTRLFSKKIRYQVRKLNADQRPRMKGRFVRRPNESTPSGQR | no binding | no binding | binds |

These are yes or no findings as the source states them, for the method shown. For some of these results: A result given as binding can be weak or reduced; the word gives no strength.
